Assay results as given in PubChem BioAssay AID248 (DTP/NCI, 2004).
The list shows only some results of the screen, not a fair sample: it gathers tests that were run many times, whatever their T/C, doses with no T/C, and many T/C values between a quarter and a half above the control. Further doses and runs are listed elsewhere. T/C: endpoint of the treated group in % of that of the vehicle group. Some doses have a count of surviving animals in place of a T/C: the source holds a T/C of zero for them, seemingly a mark for toxic or unscored doses. Some survivor counts are full or nearly so, which does not show that the dose was tolerated: the source hardly ever lists a survival T/C far under the control, and the zero likely stands for such cases as well. Counts of survivors are from the toxicity check (mostly the fifth day) where no day follows; animals may have died later. Schedules are NCI's codes, read here as Q, the interval in days (D) or hours (H), X, the number of doses. Some entries were tested several times; their values stand side by side, smallest first. Some schedules carry Z or #; the key to these is not given. For survival time, this PubChem deposit counts one and a half times the control or more as active, and values a quarter to a half above the control carry no call in these data; other NCI protocols may use other cut-offs. Some T/C values are followed by the survivors on the day toxicity was checked, most often the fifth; where none is given, no animal had died by that day.

System: L1210 leukemia ip in BDF1 mice, survival T/C
Assay: NCI In Vivo Anticancer Drug Screen. Data for tumor model L1210 Leukemia (intraperitoneal) in B6D2F1 (BDF1) mice
Conditions: T/C endpoint: mean survival time, higher T/C = longer survival
[1] = dose: 400.0 mg/kg/injection, schedule: Q01DX001 (ip), vehicle: saline
[2] = dose: 200.0 mg/kg/injection, schedule: Q01DX009 (ip), vehicle: saline
[3] = dose: 100.0 mg/kg/injection, schedule: Q04DX003 (ip), vehicle: Klucel (hydroxypropylcellulose) (HPC)
[4] = dose: 200.0 mg/kg/injection, schedule: Q04DX003 (ip), vehicle: Klucel (hydroxypropylcellulose) (HPC)
[5] = dose: 400.0 mg/kg/injection, schedule: Q04DX003 (ip), vehicle: Klucel (hydroxypropylcellulose) (HPC)
[6] = dose: 400.0 mg/kg/injection, schedule: Q01DX009 (ip), vehicle: Klucel (hydroxypropylcellulose) (HPC)
[7] = dose: 200.0 mg/kg/injection, schedule: Q04DX002 (ip), vehicle: Klucel (hydroxypropylcellulose) (HPC)
[8] = dose: 400.0 mg/kg/injection, schedule: Q04DX002 (ip), vehicle: Klucel (hydroxypropylcellulose) (HPC)
[9] = dose: 200.0 mg/kg/injection, schedule: Q01DX009 (ip), vehicle: saline with Tween-80
[10] = dose: 300.0 mg/kg/injection, schedule: Q01DX001 (ip), vehicle: saline
[11] = dose: 100.0 mg/kg/injection, schedule: Q01DX009 (ip), vehicle: Klucel (hydroxypropylcellulose) (HPC)
[12] = dose: 200.0 mg/kg/injection, schedule: Q01DX009 (ip), vehicle: Klucel (hydroxypropylcellulose) (HPC)
[13] = dose: 400.0 mg/kg/injection, schedule: Q04DX003 (ip), vehicle: saline with Tween-80

## Nc1ncnc2c1ncn2C1OC(C(=O)NO)C(O)C1O (stereo not drawn)
dose: 3.12 mg/kg/injection, schedule: Q01DX009 (ip), vehicle: saline
  survivor count: 0 of 6
dose: 6.25 mg/kg/injection, schedule: Q01DX005 (ip), vehicle: saline
  survivor count: 0 of 6
dose: 12.5 mg/kg/injection, schedule: Q01DX005 (ip), vehicle: saline
  survivor count: 0 of 6
dose: 25.0 mg/kg/injection, schedule: Q01DX005 (ip), vehicle: saline
  survivor count: 0 of 6
dose: 50.0 mg/kg/injection, schedule: Q01DX005 (ip), vehicle: saline
  survivor count: 0 of 6
dose: 100.0 mg/kg/injection, schedule: Q01DX005 (ip), vehicle: saline
  survivor count: 0 of 6
dose: 200.0 mg/kg/injection, schedule: Q01DX005 (ip), vehicle: saline
  survivor count: 0 of 6

## CCC(=O)OC1(c2ccccc2)CCN(C)CC1C (stereo not drawn)
dose: 100.0 mg/kg/injection, schedule: Q01DX001 (ip), vehicle: saline
  survivor count: 2 of 6
dose: 200.0 mg/kg/injection, schedule: Q01DX001 (ip), vehicle: saline
  survivor count: 0 of 6
[1]
  survivor count: 0 of 6

## NC1=NNC(N)=NN1
[2]
  survivor count: 0 of 3

## CCOC(=O)NC1=C(N2CC2C)C(=O)C(NC(=O)OCC)=C(N2CC2C)C1=O (stereo not drawn)
dose: 15.0 mg/kg/injection, schedule: Q01DX009 (ip), vehicle: Klucel (hydroxypropylcellulose) (HPC)
  survivor count: 0 of 6
dose: 30.0 mg/kg/injection, schedule: Q01DX009 (ip), vehicle: Klucel (hydroxypropylcellulose) (HPC)
  survivor count: 0 of 6 and 1 of 6
[3]
  T/C: 129 % of control
  survivor count: 0 of 6
[4]
  survivor count: 2 of 6
[5]
  survivor count: 0 of 6

## CCCCCCCCCCN1CCN2C(=O)N(CC)CCC2C1 (stereo not drawn)
dose: 200.0 mg/kg/injection, schedule: Q01DX001 (ip), vehicle: saline with Tween-80
  survivor count: 4 of 6
dose: 400.0 mg/kg/injection, schedule: Q01DX001 (ip), vehicle: saline with Tween-80
  survivor count: 0 of 6

## CC1CN(Cc2ccccc2)CC(C)N1 (stereo not drawn)
dose: 200.0 mg/kg/injection, schedule: Q01DX009 (ip), vehicle: water
  survivor count: 0 of 6
dose: 400.0 mg/kg/injection, schedule: Q04DX003 (ip), vehicle: water
  survivor count: 0 of 6

## CC(CCN1CCOCC1)(CN=C(N)N)c1cccc2ccccc12 (stereo not drawn)
dose: 50.0 mg/kg/injection, schedule: Q04DX002 (ip), vehicle: saline
  survivor count: 3 of 3
dose: 100.0 mg/kg/injection, schedule: Q01DX009 (ip), vehicle: saline
  survivor count: 3 of 6
dose: 100.0 mg/kg/injection, schedule: Q04DX002 (ip), vehicle: saline
  survivor count: 0 of 3
[2]
  survivor count: 0 of 6
dose: 400.0 mg/kg/injection, schedule: Q01DX009 (ip), vehicle: saline
  survivor count: 0 of 6

## O=C(Nc1ccc(C2=NCCN2)cc1)c1cccc(C(=O)Nc2ccc(C3=NCCN3)cc2)c1[N+](=O)[O-]
dose: 15.0 mg/kg/injection, schedule: Q01DX Z (ip), vehicle: carboxymethylcellulose (CMC)
  T/C: 137 % of control
dose: 120.0 mg/kg/injection, schedule: Q01DX Z (ip), vehicle: carboxymethylcellulose (CMC)
  survivor count: 0 of 6

## O=C1c2cccc3cccc(c23)C(=O)N1CCc1ccccn1
[6]
  survivor count: 1 of 6

## O=S(=O)(CCCl)c1ccc2ccccc2c1
[7]
  survivor count: 1 of 3
[8]
  survivor count: 0 of 3

## Cc1ccc(Nc2c3ccccc3nc3ccccc23)c(C)c1
[5]
  survivor count: 0 of 6

## O=C(CCCCC(=O)N/N=C/c1ccncc1)N/N=C/c1ccncc1
[9]
  survivor count: 6 of 6

## CCC(O)CNC1CCCCC1 (stereo not drawn)
[10]
  survivor count: 2 of 6

## C/C(=N/NC(N)=S)c1c(C)[nH]c2ccccc12
dose: 75.0 mg/kg/injection, schedule: Q01DX001 (ip), vehicle: alcohol
  survivor count: 1 of 6
dose: 150.0 mg/kg/injection, schedule: Q01DX001 (ip), vehicle: alcohol
  survivor count: 0 of 6
dose: 300.0 mg/kg/injection, schedule: Q01DX001 (ip), vehicle: alcohol
  survivor count: 0 of 6

## c1ccc(C2(NC3=NCCO3)CCCCC2)cc1
dose: 150.0 mg/kg/injection, schedule: Q01DX009 (ip), vehicle: Klucel (hydroxypropylcellulose) (HPC)
  survivor count: 0 of 6
dose: 300.0 mg/kg/injection, schedule: Q01DX009 (ip), vehicle: Klucel (hydroxypropylcellulose) (HPC)
  survivor count: 0 of 6

## CNC(=O)Oc1ccccc1C(=O)NCO
[11]
  T/C: 110 [5 of 6 alive], 111, 112, 112 % of control [2 of 3 alive]
dose: 200.0 mg/kg/injection, schedule: Q01DX001 (ip), vehicle: Klucel (hydroxypropylcellulose) (HPC)
  survivor count: 3 of 6
[12]
  survivor count: 0 of 3, 0 of 6, 4 of 6
[7]
  survivor count: 2 of 3
[4]
  survivor count: 4 of 6
[6]
  survivor count: 0 of 3 and 0 of 6
[8]
  survivor count: 0 of 3 and 0 of 6

## CC(C)=CN1CCCCC1
[9]
  survivor count: 2 of 6
[13]
  survivor count: 0 of 6

## CCS(=O)(=O)/C=C/c1ccc2ccccc2n1
[8]
  survivor count: 0 of 3

## Cc1cc(CC#N)c(CC#N)cc1C
dose: 200.0 mg/kg/injection, schedule: Q01DX001 (ip), vehicle: carboxymethylcellulose (CMC)
  survivor count: 2 of 6
dose: 200.0 mg/kg/injection, schedule: Q01DX009 (ip), vehicle: carboxymethylcellulose (CMC)
  survivor count: 0 of 3
dose: 200.0 mg/kg/injection, schedule: Q04DX003 (ip), vehicle: carboxymethylcellulose (CMC)
  survivor count: 0 of 6

## CN(C)c1ccc([N+](=O)[O-])cn1
dose: 400.0 mg/kg/injection, schedule: Q04DX002 (ip), vehicle: saline with Tween-80
  survivor count: 3 of 3

## c1ccc2c(c1)[nH]c1c[n+]3c(c[n+]12)[nH]c1ccccc13
[1]
  survivor count: 0 of 4

## N#Cc1ccccc1N=NNc1ccccc1C#N
dose: 50.0 mg/kg/injection, schedule: Q01DX009 (ip), vehicle: Klucel (hydroxypropylcellulose) (HPC)
  survivor count: 0 of 6
[11]
  survivor count: 0 of 6
[12]
  survivor count: 0 of 6
dose: 300.0 mg/kg/injection, schedule: Q01DX001 (ip), vehicle: other
  survivor count: 0 of 6

## CN(C)CC1CCCCN1 (stereo not drawn)
dose: 400.0 mg/kg/injection, schedule: Q04DX003 (ip), vehicle: saline
  survivor count: 6 of 6

## CCCCCCCCCCCCCCCC[n+]1ccccc1
dose: 6.25 mg/kg/injection, schedule: Q01DX009 (ip), vehicle: saline
  survivor count: 0 of 6
dose: 12.5 mg/kg/injection, schedule: Q01DX009 (ip), vehicle: saline
  survivor count: 0 of 6
dose: 25.0 mg/kg/injection, schedule: Q01DX009 (ip), vehicle: saline
  survivor count: 0 of 6
dose: 25.0 mg/kg/injection, schedule: Q01DX Z (ip), vehicle: water
  survivor count: 0 of 6
dose: 50.0 mg/kg/injection, schedule: Q01DX Z (ip), vehicle: water
  survivor count: 0 of 6
dose: 100.0 mg/kg/injection, schedule: Q01DX Z (ip), vehicle: water
  survivor count: 0 of 6
dose: 200.0 mg/kg/injection, schedule: Q01DX Z (ip), vehicle: water
  survivor count: 0 of 6

## COc1ccccc1N(C(C)=O)C1=C(Cl)C(=O)c2ccccc2C1=O
dose: 40.0 mg/kg/injection, schedule: Q01DX001 (ip), vehicle: saline
  survivor count: 2 of 6
dose: 75.0 mg/kg/injection, schedule: Q01DX001 (ip), vehicle: saline
  survivor count: 0 of 6
dose: 150.0 mg/kg/injection, schedule: Q01DX001 (ip), vehicle: saline
  survivor count: 0 of 6
[10]
  survivor count: 0 of 6

## COc1ccc([N+](=O)[O-])cc1NC(=O)c1ccc(Cl)cc1
[11]
  survivor count: 6 of 6
[12]
  survivor count: 6 of 6

## COc1cc(/C=N\NC(=O)OC(C)(C)C)cc(OC)c1OC
[13]
  survivor count: 6 of 6
